Data reported in PMC10711660, “An extended Tudor domain within Vreteno interconnects Gtsf1L and Ago3 for piRNA biogenesis in Bombyx mori” (The EMBO Journal, 2023).
These are yes or no findings as the source states them, for the method shown. Binding calls can cover weak binding; strength is not graded here. For part of these data: Tags and fused reporters may be left off the sequences shown. For part of these data: Binding seen in cells or lysates may run through a third protein.

What was measured:
[1] = target: T1, HA‐BmGtsf1L‐eGFP (Bombyx mori); experiment: co-IP; GFP-Trap magnetic agarose or control beads, lysate of BmN4 cells stably expressing HA-BmGtsf1L-eGFP; also after dsRNA knock-down of luciferase, BmAgo3 or BmVreteno; IP-150 buffer, overnight 4°C; Western blot
T1 sequence: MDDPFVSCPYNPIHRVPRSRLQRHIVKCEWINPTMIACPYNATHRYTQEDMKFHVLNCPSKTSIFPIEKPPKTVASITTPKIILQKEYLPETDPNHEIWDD

[2] = target: T2, endogenous BmAgo3 (Bombyx mori (endogenous in BmN4)) (UniProt A9ZSZ2); experiment: co-IP; antibodies to endogenous BmAgo3, Siwi or BmVreteno on Protein G Dynabeads, lysate of naive BmN4 cells; non-immune serum or rabbit IgG as control; IP-150 buffer, overnight 4°C; Western blot
T2 sequence: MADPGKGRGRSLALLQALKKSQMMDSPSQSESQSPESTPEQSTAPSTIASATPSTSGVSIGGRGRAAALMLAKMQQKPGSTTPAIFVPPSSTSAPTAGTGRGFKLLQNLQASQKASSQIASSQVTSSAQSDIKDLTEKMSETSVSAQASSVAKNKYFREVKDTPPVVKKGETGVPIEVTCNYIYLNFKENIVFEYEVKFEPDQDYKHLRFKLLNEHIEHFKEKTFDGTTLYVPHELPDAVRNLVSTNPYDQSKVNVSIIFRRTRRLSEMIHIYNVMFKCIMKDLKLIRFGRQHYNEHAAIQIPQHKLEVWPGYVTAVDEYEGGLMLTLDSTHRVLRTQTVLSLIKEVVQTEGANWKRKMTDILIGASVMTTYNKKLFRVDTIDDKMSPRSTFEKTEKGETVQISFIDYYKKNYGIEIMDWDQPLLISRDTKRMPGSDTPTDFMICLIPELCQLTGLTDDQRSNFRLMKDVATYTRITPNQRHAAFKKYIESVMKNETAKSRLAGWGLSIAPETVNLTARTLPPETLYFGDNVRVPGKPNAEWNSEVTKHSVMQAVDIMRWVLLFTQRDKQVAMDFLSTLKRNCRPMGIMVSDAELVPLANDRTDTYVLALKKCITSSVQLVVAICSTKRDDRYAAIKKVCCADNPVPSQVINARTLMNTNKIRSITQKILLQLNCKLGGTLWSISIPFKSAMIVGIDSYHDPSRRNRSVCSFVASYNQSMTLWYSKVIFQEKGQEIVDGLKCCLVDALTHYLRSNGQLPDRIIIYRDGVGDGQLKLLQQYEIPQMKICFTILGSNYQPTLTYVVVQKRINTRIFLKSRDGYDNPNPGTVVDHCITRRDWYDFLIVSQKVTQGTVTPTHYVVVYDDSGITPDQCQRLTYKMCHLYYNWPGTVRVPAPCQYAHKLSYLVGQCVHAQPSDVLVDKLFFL

[3] = target: T2, endogenous BmAgo3 (Bombyx mori (endogenous in BmN4)); experiment: co-IP; antibodies to endogenous BmAgo3, Siwi or BmVreteno on Protein G Dynabeads, lysate of BmN4 cells stably expressing HA-BmGtsf1L-eGFP; also after dsRNA knock-down of luciferase, BmGtsf1L or BmVreteno; IP-150 buffer, overnight 4°C; Western blot
[4] = target: BmGtsf1L‐eGFP fragment missing the N‐terminal part, including the two CHHC Zn fingers (Bombyx mori); experiment: co-IP; GFP-IP on extracts of BmN4 cells transfected with BmGtsf1L-eGFP full length, deletion variants or alanine mutants; HA-eGFP as control; Western blot of endogenous BmVreteno and BmAgo3
[5] = target: BmGtsf1L‐eGFP with deletion of the C‐terminus (Bombyx mori); experiment: as above
[6] = target: GST‐BmVreteno‐L aromatic cage mutant (YYN > AAA) (Bombyx mori); experiment: pull-down; GSH pull-down: 5 μM GST-BmVreteno (or fragment, variant) on Glutathione Sepharose 4B with 10 μM His-BmGtsf1L, 2 h 4°C, PBS with 0.1% Triton-X100; SDS-PAGE, Coomassie (Fig 5G also anti-His Western blot); both purified
[7] = target: GST‐BmVreteno‐S (Bombyx mori); experiment: as above

endogenous BmQin (Bombyx mori (endogenous in BmN4))
binding [1]: binds

endogenous BmVreteno‐Short (S) isoform (Bombyx mori (endogenous in BmN4))
binding [2]: binds | binding [1]: binds | binding [3]: binds

endogenous BmSpn‐E (Bombyx mori (endogenous in BmN4))
binding [1]: binds

B1: endogenous BmAgo3 (protein, UniProt A9ZSZ2 1-926)
chain: MADPGKGRGRSLALLQALKKSQMMDSPSQSESQSPESTPEQSTAPSTIASATPSTSGVSIGGRGRAAALMLAKMQQKPGSTTPAIFVPPSSTSAPTAGTGRGFKLLQNLQASQKASSQIASSQVTSSAQSDIKDLTEKMSETSVSAQASSVAKNKYFREVKDTPPVVKKGETGVPIEVTCNYIYLNFKENIVFEYEVKFEPDQDYKHLRFKLLNEHIEHFKEKTFDGTTLYVPHELPDAVRNLVSTNPYDQSKVNVSIIFRRTRRLSEMIHIYNVMFKCIMKDLKLIRFGRQHYNEHAAIQIPQHKLEVWPGYVTAVDEYEGGLMLTLDSTHRVLRTQTVLSLIKEVVQTEGANWKRKMTDILIGASVMTTYNKKLFRVDTIDDKMSPRSTFEKTEKGETVQISFIDYYKKNYGIEIMDWDQPLLISRDTKRMPGSDTPTDFMICLIPELCQLTGLTDDQRSNFRLMKDVATYTRITPNQRHAAFKKYIESVMKNETAKSRLAGWGLSIAPETVNLTARTLPPETLYFGDNVRVPGKPNAEWNSEVTKHSVMQAVDIMRWVLLFTQRDKQVAMDFLSTLKRNCRPMGIMVSDAELVPLANDRTDTYVLALKKCITSSVQLVVAICSTKRDDRYAAIKKVCCADNPVPSQVINARTLMNTNKIRSITQKILLQLNCKLGGTLWSISIPFKSAMIVGIDSYHDPSRRNRSVCSFVASYNQSMTLWYSKVIFQEKGQEIVDGLKCCLVDALTHYLRSNGQLPDRIIIYRDGVGDGQLKLLQQYEIPQMKICFTILGSNYQPTLTYVVVQKRINTRIFLKSRDGYDNPNPGTVVDHCITRRDWYDFLIVSQKVTQGTVTPTHYVVVYDDSGITPDQCQRLTYKMCHLYYNWPGTVRVPAPCQYAHKLSYLVGQCVHAQPSDVLVDKLFFL
binding [4]: binds | binding [5]: binds

B2: His‐BmGtsf1L (natural protein, Bombyx mori)
chain: MDDPFVSCPYNPIHRVPRSRLQRHIVKCEWINPTMIACPYNATHRYTQEDMKFHVLNCPSKTSIFPIEKPPKTVASITTPKIILQKEYLPETDPNHEIWDD
notes: BmGtsf1L, Bombyx mori; pET28a, thrombin site after the His6 tag; also called His6‐thrombin‐BmGtsf1L; recombinant BmGtsf1L; source: E. coli BL21 DE3 codon+, purified (HisTrap, gel filtration); not shown: His6, N-terminal, kept
binding [6]: binds | binding [7]: binds
